The source of these data is article PMC8891752.

Sequences of proteins named here, by UniProt entry; tags and fusion partners are left off.
UniProt P61421: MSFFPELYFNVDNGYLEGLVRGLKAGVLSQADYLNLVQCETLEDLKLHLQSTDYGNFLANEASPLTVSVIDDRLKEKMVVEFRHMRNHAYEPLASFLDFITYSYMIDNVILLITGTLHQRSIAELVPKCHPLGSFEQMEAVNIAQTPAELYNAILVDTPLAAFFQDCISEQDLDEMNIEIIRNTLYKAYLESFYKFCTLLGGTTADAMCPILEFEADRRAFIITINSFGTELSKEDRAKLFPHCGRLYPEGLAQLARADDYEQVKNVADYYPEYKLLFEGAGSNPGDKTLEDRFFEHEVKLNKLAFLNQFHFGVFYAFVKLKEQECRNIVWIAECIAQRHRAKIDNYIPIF

Assay [1] deals with T1, HPS6 (endogenous) (UniProt Q86YV9).
T1 sequence: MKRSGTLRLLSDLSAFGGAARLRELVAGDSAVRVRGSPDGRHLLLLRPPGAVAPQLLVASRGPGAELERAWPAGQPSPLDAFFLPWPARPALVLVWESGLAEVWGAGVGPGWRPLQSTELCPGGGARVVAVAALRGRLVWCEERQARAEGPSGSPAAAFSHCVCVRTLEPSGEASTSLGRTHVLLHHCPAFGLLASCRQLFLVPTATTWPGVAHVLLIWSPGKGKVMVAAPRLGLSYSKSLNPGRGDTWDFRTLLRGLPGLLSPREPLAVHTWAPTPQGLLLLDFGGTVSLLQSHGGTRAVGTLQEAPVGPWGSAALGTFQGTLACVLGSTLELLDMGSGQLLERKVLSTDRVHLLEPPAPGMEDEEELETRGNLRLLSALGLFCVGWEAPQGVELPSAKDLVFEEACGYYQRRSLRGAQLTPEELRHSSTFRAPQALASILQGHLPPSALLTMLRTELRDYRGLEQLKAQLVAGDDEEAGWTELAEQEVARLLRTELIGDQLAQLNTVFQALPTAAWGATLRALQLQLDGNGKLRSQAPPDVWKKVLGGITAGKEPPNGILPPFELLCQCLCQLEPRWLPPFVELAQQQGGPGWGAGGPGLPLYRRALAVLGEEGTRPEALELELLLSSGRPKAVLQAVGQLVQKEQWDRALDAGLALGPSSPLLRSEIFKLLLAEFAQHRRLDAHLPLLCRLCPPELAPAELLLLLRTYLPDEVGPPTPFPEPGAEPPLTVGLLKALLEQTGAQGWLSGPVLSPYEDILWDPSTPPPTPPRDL
Briefly: co-IP; endogenous immunoprecipitation of HPS6, ATP6V0D1 detected; data not shown; cells not given.

For assay [2], the target named is T2, Flag-tagged HPS6 (UniProt Q86YV9).
T2 sequence: T1 sequence
Description: co-IP; 293 T cells co-transfected with Flag-HPS6 and Myc-ATP6V0D1; lysate (Tris-HCl pH 7.4, NaCl, EDTA, 1% Triton X-100) incubated overnight at 4°C with anti-FLAG M2 affinity gel, washed 4 times; blots with anti-Myc and anti-Flag.

Results are given in words; binding and its absence hold for the method and conditions named. Binding seen in cells or lysates may run through a third protein. Some entries that bind do so weakly or less than the wild type. For some assays here: Tags and fused reporters may be left off the sequences shown.

Regarding “ATP6V0D1 (endogenous) (from UniProt P61421 1-351)”, the binding entry in assay [1] is “binds”.

On to “Myc-tagged ATP6V0D1 (from UniProt P61421 1-351)”, for which the binding result in assay [2] is “binds”.
